{"source": "patent US5721223A", "about": "“Imidazo[1,2-a] Pyridinyldiacid compounds for cognitive enhancement and for treatment of cognitive disorders and neurotoxic injury” (priority 1995, dated 1998)", "key": {"[1]": {"target": "N-methyl-D-aspartate (NMDA) receptor site", "experiment": "Glutamate binding assay ([3H]GLU)", "conditions": "L-[3H]glutamate 12.5 nM, SPM"}, "KA": {"target": "KA", "experiment": "KA receptor binding (Table I)"}, "[2]": {"tested_on": "NMDA/glycine/PCP receptor complex", "experiment": "TCP modulation assay ([3H]TCP binding)", "parameters": "species or system rat"}, "[3]": {"conditions": "Ex. #3 compound 6 μM, glutamate 0"}, "[4]": {"conditions": "Ex. #3 compound 6 μM, glutamate 0.05 μM"}, "[5]": {"conditions": "Ex. #3 compound 6 μM, glutamate 0.2 μM"}, "[6]": {"conditions": "Ex. #3 compound 6 μM, glutamate 1 μM"}, "[7]": {"conditions": "Ex. #3 compound 20 μM, glutamate 0"}, "[8]": {"conditions": "Ex. #3 compound 20 μM, glutamate 0.05 μM"}, "[9]": {"conditions": "Ex. #3 compound 20 μM, glutamate 0.2 μM"}, "[10]": {"conditions": "Ex. #3 compound 20 μM, glutamate 1 μM"}, "[11]": {"conditions": "Ex. #3 compound 60 μM, glutamate 0"}, "[12]": {"conditions": "Ex. #3 compound 60 μM, glutamate 0.05 μM"}, "[13]": {"conditions": "Ex. #3 compound 60 μM, glutamate 0.2 μM"}, "[14]": {"conditions": "Ex. #3 compound 60 μM, glutamate 1 μM"}, "[15]": {"conditions": "Ex. #3 compound 120 μM, glutamate 0"}, "[16]": {"conditions": "Ex. #3 compound 120 μM, glutamate 0.05 μM"}, "[17]": {"conditions": "Ex. #3 compound 120 μM, glutamate 0.2 μM"}, "[18]": {"conditions": "Ex. #3 compound 120 μM, glutamate 1 μM"}, "[19]": {"conditions": "Ex. #3 compound 200 μM, glutamate 0"}, "[20]": {"conditions": "Ex. #3 compound 200 μM, glutamate 0.05 μM"}, "[21]": {"conditions": "Ex. #3 compound 200 μM, glutamate 0.2 μM"}, "[22]": {"conditions": "Ex. #3 compound 200 μM, glutamate 1 μM"}, "[23]": {"conditions": "Ex. #3 compound 400 μM, glutamate 0"}, "[24]": {"conditions": "Ex. #3 compound 400 μM, glutamate 0.05 μM"}, "[25]": {"conditions": "Ex. #3 compound 400 μM, glutamate 0.2 μM"}, "[26]": {"conditions": "Ex. #3 compound 400 μM, glutamate 1 μM"}, "[27]": {"conditions": "Ex. #3 compound 660 μM, glutamate 0"}, "[28]": {"conditions": "Ex. #3 compound 660 μM, glutamate 0.05 μM"}, "[29]": {"conditions": "Ex. #3 compound 660 μM, glutamate 0.2 μM"}, "[30]": {"conditions": "Ex. #3 compound 660 μM, glutamate 1 μM"}}, "note": "Where a name gives a salt, the structure may show the parent alone. For at least one compound, name, drawing or mass did not settle the structure."}
{"smiles": "O=C(O)Cc1c(C(=O)O)nc2ccccn12", "note": "[Example 3, hydrochloride]", "values": [{"measurement": "Ki", "setting": "[1]", "result": 15.9, "unit": "µM"}, {"measurement": "KA Ki", "setting": "KA", "result": 51, "unit": "µM"}, {"measurement": "[^3 H]TCP INHIB.", "setting": "[2]; @ 66 μM, in presence of 0.05 μM L-glutamate", "result": 26, "unit": "%"}, {"measurement": "[^3 H]TCP binding", "setting": "[2]; [3]", "result": 4363, "unit": "dpm"}, {"measurement": "percent of maximal glutamate (1 μM) stimulated [^3 H]TCP binding", "setting": "[2]; [3]", "result": 29, "unit": "%"}, {"measurement": "[^3 H]TCP binding", "setting": "[2]; [4]", "result": 7680, "unit": "dpm"}, {"measurement": "percent of maximal glutamate (1 μM) stimulated [^3 H]TCP binding", "setting": "[2]; [4]", "result": 50, "unit": "%"}, {"measurement": "[^3 H]TCP binding", "setting": "[2]; [5]", "result": 11660, "unit": "dpm"}, {"measurement": "percent of maximal glutamate (1 μM) stimulated [^3 H]TCP binding", "setting": "[2]; [5]", "result": 77, "unit": "%"}, {"measurement": "[^3 H]TCP binding", "setting": "[2]; [6]", "result": 14275, "unit": "dpm"}, {"measurement": "percent of maximal glutamate (1 μM) stimulated [^3 H]TCP binding", "setting": "[2]; [6]", "result": 94, "unit": "%"}, {"measurement": "[^3 H]TCP binding", "setting": "[2]; [7]", "result": 5082, "unit": "dpm"}, {"measurement": "percent of maximal glutamate (1 μM) stimulated [^3 H]TCP binding", "setting": "[2]; [7]", "result": 33, "unit": "%"}, {"measurement": "[^3 H]TCP binding", "setting": "[2]; [8]", "result": 8011, "unit": "dpm"}, {"measurement": "percent of maximal glutamate (1 μM) stimulated [^3 H]TCP binding", "setting": "[2]; [8]", "result": 53, "unit": "%"}, {"measurement": "[^3 H]TCP binding", "setting": "[2]; [9]", "result": 11183, "unit": "dpm"}, {"measurement": "percent of maximal glutamate (1 μM) stimulated [^3 H]TCP binding", "setting": "[2]; [9]", "result": 73, "unit": "%"}, {"measurement": "[^3 H]TCP binding", "setting": "[2]; [10]", "result": 13870, "unit": "dpm"}, {"measurement": "percent of maximal glutamate (1 μM) stimulated [^3 H]TCP binding", "setting": "[2]; [10]", "result": 91, "unit": "%"}, {"measurement": "[^3 H]TCP binding", "setting": "[2]; [11]", "result": 8144, "unit": "dpm"}, {"measurement": "percent of maximal glutamate (1 μM) stimulated [^3 H]TCP binding", "setting": "[2]; [11]", "result": 54, "unit": "%"}, {"measurement": "[^3 H]TCP binding", "setting": "[2]; [12]", "result": 8601, "unit": "dpm"}, {"measurement": "percent of maximal glutamate (1 μM) stimulated [^3 H]TCP binding", "setting": "[2]; [12]", "result": 57, "unit": "%"}, {"measurement": "[^3 H]TCP binding", "setting": "[2]; [13]", "result": 10568, "unit": "dpm"}, {"measurement": "percent of maximal glutamate (1 μM) stimulated [^3 H]TCP binding", "setting": "[2]; [13]", "result": 69, "unit": "%"}, {"measurement": "[^3 H]TCP binding", "setting": "[2]; [14]", "result": 13555, "unit": "dpm"}, {"measurement": "percent of maximal glutamate (1 μM) stimulated [^3 H]TCP binding", "setting": "[2]; [14]", "result": 89, "unit": "%"}, {"measurement": "[^3 H]TCP binding", "setting": "[2]; [15]", "result": 9598, "unit": "dpm"}, {"measurement": "percent of maximal glutamate (1 μM) stimulated [^3 H]TCP binding", "setting": "[2]; [15]", "result": 63, "unit": "%"}, {"measurement": "[^3 H]TCP binding", "setting": "[2]; [16]", "result": 10897, "unit": "dpm"}, {"measurement": "percent of maximal glutamate (1 μM) stimulated [^3 H]TCP binding", "setting": "[2]; [16]", "result": 72, "unit": "%"}, {"measurement": "[^3 H]TCP binding", "setting": "[2]; [17]", "result": 11278, "unit": "dpm"}, {"measurement": "percent of maximal glutamate (1 μM) stimulated [^3 H]TCP binding", "setting": "[2]; [17]", "result": 74, "unit": "%"}, {"measurement": "[^3 H]TCP binding", "setting": "[2]; [18]", "result": 13461, "unit": "dpm"}, {"measurement": "percent of maximal glutamate (1 μM) stimulated [^3 H]TCP binding", "setting": "[2]; [18]", "result": 88, "unit": "%"}, {"measurement": "[^3 H]TCP binding", "setting": "[2]; [19]", "result": 10336, "unit": "dpm"}, {"measurement": "percent of maximal glutamate (1 μM) stimulated [^3 H]TCP binding", "setting": "[2]; [19]", "result": 68, "unit": "%"}, {"measurement": "[^3 H]TCP binding", "setting": "[2]; [20]", "result": 10307, "unit": "dpm"}, {"measurement": "percent of maximal glutamate (1 μM) stimulated [^3 H]TCP binding", "setting": "[2]; [20]", "result": 68, "unit": "%"}, {"measurement": "[^3 H]TCP binding", "setting": "[2]; [21]", "result": 11476, "unit": "dpm"}, {"measurement": "percent of maximal glutamate (1 μM) stimulated [^3 H]TCP binding", "setting": "[2]; [21]", "result": 75, "unit": "%"}, {"measurement": "[^3 H]TCP binding", "setting": "[2]; [22]", "result": 13433, "unit": "dpm"}, {"measurement": "percent of maximal glutamate (1 μM) stimulated [^3 H]TCP binding", "setting": "[2]; [22]", "result": 88, "unit": "%"}, {"measurement": "[^3 H]TCP binding", "setting": "[2]; [23]", "result": 9860, "unit": "dpm"}, {"measurement": "percent of maximal glutamate (1 μM) stimulated [^3 H]TCP binding", "setting": "[2]; [23]", "result": 65, "unit": "%"}, {"measurement": "[^3 H]TCP binding", "setting": "[2]; [24]", "result": 9777, "unit": "dpm"}, {"measurement": "percent of maximal glutamate (1 μM) stimulated [^3 H]TCP binding", "setting": "[2]; [24]", "result": 64, "unit": "%"}, {"measurement": "[^3 H]TCP binding", "setting": "[2]; [25]", "result": 10602, "unit": "dpm"}, {"measurement": "percent of maximal glutamate (1 μM) stimulated [^3 H]TCP binding", "setting": "[2]; [25]", "result": 70, "unit": "%"}, {"measurement": "[^3 H]TCP binding", "setting": "[2]; [26]", "result": 11215, "unit": "dpm"}, {"measurement": "percent of maximal glutamate (1 μM) stimulated [^3 H]TCP binding", "setting": "[2]; [26]", "result": 74, "unit": "%"}, {"measurement": "[^3 H]TCP binding", "setting": "[2]; [27]", "result": 7672, "unit": "dpm"}, {"measurement": "percent of maximal glutamate (1 μM) stimulated [^3 H]TCP binding", "setting": "[2]; [27]", "result": 50, "unit": "%"}, {"measurement": "[^3 H]TCP binding", "setting": "[2]; [28]", "result": 8342, "unit": "dpm"}, {"measurement": "percent of maximal glutamate (1 μM) stimulated [^3 H]TCP binding", "setting": "[2]; [28]", "result": 55, "unit": "%"}, {"measurement": "[^3 H]TCP binding", "setting": "[2]; [29]", "result": 7871, "unit": "dpm"}, {"measurement": "percent of maximal glutamate (1 μM) stimulated [^3 H]TCP binding", "setting": "[2]; [29]", "result": 52, "unit": "%"}, {"measurement": "[^3 H]TCP binding", "setting": "[2]; [30]", "result": 7809, "unit": "dpm"}, {"measurement": "percent of maximal glutamate (1 μM) stimulated [^3 H]TCP binding", "setting": "[2]; [30]", "result": 51, "unit": "%"}, {"measurement": "effect on NMDA receptor activation state", "setting": "[2]; depending on the concentrations tested", "result": "both NMDA agonist and antagonist properties"}, {"measurement": "behaviour in [^3 H]TCP modulation", "setting": "[2]; higher concentrations", "result": "antagonist actions"}, {"measurement": "behaviour in [^3 H]TCP modulation", "setting": "[2]; low concentrations (<200 μM)", "result": "partial agonist"}]}
